The whole screen tested about 59,000 compounds, of which about 6,500 (11%) were called active. The inconclusive results got no clear call from the source; some entries with a clear call stand among them for comparison. Cut-off read from the data, not from the text of the source: active = max dye-equivalent concentration above about 10 nM; inconclusive = mostly about 1.1 nM to 9.6 nM; inactive = weaker than that.
Experiment: qHTS Assay for Spectroscopic Profiling in A350 Spectral Region
Conditions: Compound autofluorescence, 340/450 nm, Alexa 350 dye-equivalents; active compounds read high

Row | SMILES | max dye-equivalent concentration
1 | COC(=O)COC(=O)c1ccc(-n2nnnc2SC)cc1 | inconclusive: 1.1 nM
2 | O=C(CN(C(=O)CCC(=O)Nc1nccs1)c1ccc2c(c1)OCO2)NCC1CCCO1 (configuration not stated) | inconclusive: 1.5 nM
3 | O/N=C1/CCc2nonc2/C1=N/O | inconclusive: 1.8 nM
4 | CC1CCc2c(nc3ncnn3c2N2CCN(c3ccccc3)CC2)C1 (configuration not stated) | inactive
5 | C[C@@](N)(C(=O)O)c1ccc(C(=O)O)cc1 | inactive
6 | O=C(O)CCCCCNC(=O)c1ccncc1 | inactive
7 | Cc1ccc(-n2ncc(C(=O)NCc3ccc4c(c3)OCO4)c2NC(=O)c2ccco2)cc1C | inconclusive: 4.3 nM
8 | O=C1CC(c2cccc(Cl)c2)Cc2nc(N3CCOCC3)ncc21 (configuration not stated) | inconclusive: 3.7 nM
9 | O=C(COc1ccccc1)Nc1ccccc1C(=O)NCc1ccco1 | inactive
10 | c1ccc(N2CCN(c3nc4ccccc4n4nnnc34)CC2)cc1 | active: 23 nM
11 | C[N+](C)(C)CCCCCCCCCC[N+](C)(C)C | inconclusive: 2.4 nM
12 | CCOC(=O)C1CCN(c2ncnc3c2oc2ccc(Br)cc23)CC1 | inconclusive: 6 nM
13 | COc1ccccc1Oc1coc2cc(O)ccc2c1=O | active: 420 nM
14 | COc1cc(NC(=O)c2ccc3c(c2)OCO3)ccc1NC(=O)C(C)C | inactive
15 | CC(C)[C@H](NC(=O)OC(C)(C)C)c1nnc(S(=O)(=O)Cc2c(F)cccc2Cl)o1 | inconclusive: 1.6 nM
16 | O=c1c(-c2ccccc2)nc2cncnc2n1C1CC1 | inconclusive: 1.2 nM
17 | Oc1ccccc1N=Cc1ccc[nH]1 | inconclusive: 3.2 nM
18 | CCOC(=O)CCP(=O)(O)C(O)c1ccc(OC)cc1 (configuration not stated) | active: 29 nM
19 | Brc1ccccc1-c1nnc2sc(Cc3ccccc3)nn12 | inactive
20 | CC(C)CC(=O)Nc1cccc(-c2nc3ccccc3o2)c1 | inconclusive: 2.1 nM
21 | O=C(NCc1ccc(F)cc1)c1cc(S(=O)(=O)N2CCOCC2)ccc1F | inconclusive: 1.2 nM
22 | Cc1ccccc1-n1nc2c(c1NC(=O)c1ccc(Br)o1)CSC2 | inactive
23 | COc1ccc(N2C(=O)CCC(C(=O)N3CCC(C(N)=O)CC3)C2c2ccc(F)cc2)cc1 (configuration not stated) | inconclusive: 2.1 nM
24 | CC(C)CC(NC(=O)C1CCC(C)CC1)C(=O)Nc1ccccn1 (configuration not stated) | inconclusive: 2.1 nM
25 | O=C(c1ccco1)N1CCN(c2ncnc3c2[nH]c2ccccc23)CC1 | inconclusive: 6.4 nM
26 | O=c1cc(-c2ccccc2)[nH]c2nc3ccccc3n12 | active: 370 nM
27 | Cn1c(-n2c(-c3ccco3)nc3ccccc3c2=O)nc2ccccc21 | inconclusive: 5.6 nM

Laid out differently: results already given
Row	SMILES	max dye-equivalent concentration
5	C[C@@](N)(C(=O)O)c1ccc(C(=O)O)cc1	inactive
6	O=C(O)CCCCCNC(=O)c1ccncc1	inactive
